Results from patent US11129819B2, “Fumarate analogs and uses thereof” (Rigel Pharmaceuticals, Inc., priority 2014, dated 2021).

Assay: Glutathione depletion assay (Michael addition to glutathione followed by 1H NMR)
Format: physicochemical
Settings: 2 equiv. reduced glutathione, d6-DMSO, 35° C., majority reaction = greater than 50% reduction in alkene proton signal
Excerpt: 1. Glutathione Depletion Assay
In one aspect the present compounds exert their therapeutic effects by acting as a Michael acceptor for reactive thiol groups in vivo. See, for example, Lehmann et al. Dimethyfumarate Induces Immunosuppression via Glutathione Depletion and Subsequent Induction of Heme Oxygenase 1, Journal of Investigative Dermatology (2007) 127, 835-845. Accordingly, the present compounds may be assessed in vitro by reaction with glutathione as follows:
A mixture of dimethylfumarate (5.2 mg, 3.6 mmol) and reduced glutathione (22.4 mg, 7.3 mmol; 2 equiv.) in d6-DMSO (1.2 mL) were combined in a screw-top vial and the mixture was stirred at 35° C. (with the top securely fastened). Aliquots of sample were removed at intermittent timepoints and a ^1H NMR taken [note: after analysis by ^1H NMR, the sample can be returned to the heated vial and reaction continued). ^1H NMR indicates majority reaction with glutathione (by Michael addition to the double bond) after 3 hr, and complete reaction by 27 hr.
The above reaction was repeated using monomethylfumarate (11.4 mg, 8.8 mmol) and reduced glutathione (55.5 mg, 18.0 mmol) in d6-DMSO (3.0 mL) at 35° C. As judged by 1H NMR, majority reaction was observed by 27 hr.
The above reaction was repeated using methyl (E)-3-(5-oxo-4,5-dihydro-1H-tetrazol-1-yl)acrylate (6.2 mg, 3.6 mmol) and reduced glutathione (22.4 mg, 7.2 mmol) in d6-DMSO (1.2 mL) at 35° C. As judged by ^1H NMR, majority reaction was observed by 30 hr.
As judged by ^1H NMR, majority reaction was observed by 30 hr.
In all the above cases, dis-appearance of the alkene proton signals from the starting material are used to determine the extent of Michael reaction with glutathione.
As would be understood by those of skill in the art, the above experiments can be repeated by varying the equivalents of reduced glutathione (0.5 to 2 equivalents); the reactions can also be run in a mixture of d6-DMSO and D2O; and the temperature of the reaction can also be varied from room temperature to 35° C. (35° C. being used to mimic body temperature). […]

| Structure (SMILES) | time to majority reaction with glutathione (Michael addition to the double bond) |
| --- | --- |
| COC(=O)/C=C/n1nn[nH]c1=O [Compound 1, methyl (E)-3-(5-oxo-4,5-dihydro-1H-tetrazol-1-yl)acrylate] | ≤ 30 h |
| COC(=O)/C=C/n1nnn(C)c1=O [Compound 2, methyl (E)-3-(4-methyl-5-oxo-4,5-dihydro-1H-tetrazol-1-yl)acrylate] | ≤ 30 h |
| COC(=O)/C=C/C(=O)OC [dimethyl fumarate, reference compound] | ≤ 3 h |

Where a name gives a salt, the structure may show the parent alone.
